{"sequences": {"note": "By UniProt entry, the sequences of proteins in these tests, tags left out.", "UniProt P27449": "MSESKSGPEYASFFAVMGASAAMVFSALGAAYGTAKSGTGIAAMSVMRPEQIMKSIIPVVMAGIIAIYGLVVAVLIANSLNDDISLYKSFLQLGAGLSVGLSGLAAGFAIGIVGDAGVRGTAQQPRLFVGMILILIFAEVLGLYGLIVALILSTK"}, "source": "paper PMC2279130", "assay_in_all_cases": "pull-down; flag-tagged ATP6V0C and GST-tagged RNF182 constructs co-transfected in HEK-293; extracts incubated with glutathione-sepharose beads overnight at 4°C, washed four times with PBST (1% Triton X-100 in PBS); Western blot with anti-flag and anti-GST", "key": {"[1]": {"target": "T1, GST-RNF182 RING finger domain (human) (UniProt Q8N6D2)", "T1 sequence": "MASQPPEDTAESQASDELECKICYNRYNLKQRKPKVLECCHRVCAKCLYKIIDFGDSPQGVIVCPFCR"}, "[2]": {"target": "T2, GST-RNF182 C-end domain (human) (UniProt Q8N6D2)", "T2 sequence": "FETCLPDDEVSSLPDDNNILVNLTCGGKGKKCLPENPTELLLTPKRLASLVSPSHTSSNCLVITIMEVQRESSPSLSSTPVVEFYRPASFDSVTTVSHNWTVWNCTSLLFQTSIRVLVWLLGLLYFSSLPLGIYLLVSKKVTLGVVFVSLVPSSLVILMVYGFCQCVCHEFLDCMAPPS"}, "[3]": {"target": "T3, GST-RNF182 full length (human) (UniProt Q8N6D2)", "T3 sequence": "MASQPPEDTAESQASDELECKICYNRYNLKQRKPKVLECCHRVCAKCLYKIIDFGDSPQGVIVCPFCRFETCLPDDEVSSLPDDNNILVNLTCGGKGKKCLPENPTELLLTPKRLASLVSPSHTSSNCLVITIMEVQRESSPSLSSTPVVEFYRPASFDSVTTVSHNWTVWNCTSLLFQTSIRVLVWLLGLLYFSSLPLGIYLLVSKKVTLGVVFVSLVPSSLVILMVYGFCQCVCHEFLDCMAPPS"}}, "note": "These are yes or no findings as the source states them, for the method shown. In cells and extracts the contact can be indirect. Some binding calls cover weakened binding; strength is not graded here. Sequences can lack the tags named with a protein.", "data": [{"substance": "flag-tagged ATP6V0C (from UniProt P27449 1-155)", "values": [{"measurement": "binding", "setting": "[1]", "value": "no binding"}, {"measurement": "binding", "setting": "[2]", "value": "binds"}, {"measurement": "binding", "setting": "[3]", "value": "binds"}]}]}
